Measured values: publication doi:10.1101/2020.11.13.381095 (bioRxiv, 2020)
Where two headings read alike, the source gives them in different places. Results are given in words; binding and its absence hold for the method and conditions named. Some entries that bind do so weakly or less than the wild type.

Assays:
Experiment in all cases: SPR
adrenodoxin [1] = biological target: T1, adrenodoxin (human, UniProt P10109 61-184)
T1 sequence (looked up): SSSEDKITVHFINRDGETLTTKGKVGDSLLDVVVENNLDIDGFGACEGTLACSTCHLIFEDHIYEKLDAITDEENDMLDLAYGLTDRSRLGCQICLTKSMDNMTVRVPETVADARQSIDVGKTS

adrenodoxin [2] = biological target: T1, adrenodoxin; remark: listed apart in the source
adrenodoxin [3] = biological target: T1, adrenodoxin; remark: listed apart in the source
adrenodoxin [4] = biological target: T1, adrenodoxin; remark: listed apart in the source
adrenodoxin [5] = biological target: T1, adrenodoxin; remark: listed apart in the source
adrenodoxin [6] = biological target: T1, adrenodoxin; remark: listed apart in the source

Measured: binding

B1: cytochrome P450 CYP11A1 (cholesterol side chain cleavage enzyme) (enzyme, human)
chain: STRSPRPFNEIPSPGDNGWLNLYHFWRETGTHKVHLHHVQNFQKYGPIYREKLGNVESVYVIDPEDVALLFKSEGPNPERFLIPPWVAYHQYYQRPIGVLLKKSAAWKKDRVALNQEVMAPEATKNFLPLLDAVSRDFVSVLHRRIKKAGSGNYSGDISDDLFRFAFESITNVIFGERQGMLEEVVNPEAQRFIDAIYQMFHTSVPMLNLPPDLFRLFRTKTWKDHVAAWDVIFSKADIYTQNFYWELRQKGSVHHDYRGILYRLLGDSKMSFEDIKANVTEMLAGGVDTTSMTLQWHLYEMARNLKVQDMLRAEVLAARHQAQGDMATMLQLVPLLKASIKETLRLHPISVTLQRYLVNDLVLRDYMIPAKTLVQVAIYALGREPTFFFDPENFDPTRWLSKDKNITYFRNLGFGWGVRQCLGRRIAELEMTIFLINMLENFRVEIQHLSDVGTTFNLILMPEKPISFTFWPFNQEATQQ
binds: adrenodoxin [1] | adrenodoxin [2]

B2: cytochrome P450 CYP11B1 (11ß-hydroxylase) (enzyme, human)
chain: VPRTVLPFEAMPRRPGNRWLRLLQIWREQGYEDLHLEVHQTFQELGPIFRYDLGGAGMVCVMLPEDVEKLQQVDSLHPHRMSLEPWVAYRQHRGHKCGVFLLNGPEWRFNRLRLNPEVLSPNAVQRFLPMVDAVARDFSQALKKKVLQNARGSLTLDVQPSIFHYTIEASNLALFGERLGLVGHSPSSASLNFLHALEVMFKSTVQLMFMPRSLSRWTSPKVWKEHFEAWDCIFQYGDNCIQKIYQELAFSRPQQYTSIVAELLLNAELSPDAIKANSMELTAGSVDTTVFPLLMTLFELARNPNVQQALRQESLAAAASISEHPQKATTELPLLRAALKETLRLYPVGLFLERVASSDLVLQNYHIPAGTLVRVFLYSLGRNPALFPRPERYNPQRWLDIRGSGRNFYHVPFGFGMRQCLGRRLAEAEMLLLLHHVLKHLQVETLTQEDIKMVYSFILRPSMFPLLTFRAIN
not listed: adrenodoxin [2]
binds: all other assays above

B3: cytochrome P450 CYP11B2 (aldosterone synthase) (enzyme, human, UniProt P19099 25-503, looked up)
chain: GTRAARAPRTVLPFEAMPQHPGNRWLRLLQIWREQGYEHLHLEMHQTFQELGPIFRYNLGGPRMVCVMLPEDVEKLQQVDSLHPCRMILEPWVAYRQHRGHKCGVFLLNGPEWRFNRLRLNPDVLSPKAVQRFLPMVDAVARDFSQALKKKVLQNARGSLTLDVQPSIFHYTIEASNLALFGERLGLVGHSPSSASLNFLHALEVMFKSTVQLMFMPRSLSRWISPKVWKEHFEAWDCIFQYGDNCIQKIYQELAFNRPQHYTGIVAELLLKAELSLEAIKANSMELTAGSVDTTAFPLLMTLFELARNPDVQQILRQESLAAAASISEHPQKATTELPLLRAALKETLRLYPVGLFLERVVSSDLVLQNYHIPAGTLVQVFLYSLGRNAALFPRPERYNPQRWLDIRGSGRNFHHVPFGFGMRQCLGRRLAEAEMLLLLHHVLKHFLVETLTQEDIKMVYSFILRPGTSPLLTFRAIN
binds: adrenodoxin [5] | adrenodoxin [1]
